Assay results as given in article PMC10042999.
Results are given in words; binding and its absence hold for the method and conditions named. In cells and extracts the contact can be indirect. Some results given as binding are weak or reduced against the parent protein; the word gives no strength.

Sequences of proteins named here, by UniProt entry; tags and fusion partners are left off. Residues count along the entry.
UniProt P38646, residues 47-679: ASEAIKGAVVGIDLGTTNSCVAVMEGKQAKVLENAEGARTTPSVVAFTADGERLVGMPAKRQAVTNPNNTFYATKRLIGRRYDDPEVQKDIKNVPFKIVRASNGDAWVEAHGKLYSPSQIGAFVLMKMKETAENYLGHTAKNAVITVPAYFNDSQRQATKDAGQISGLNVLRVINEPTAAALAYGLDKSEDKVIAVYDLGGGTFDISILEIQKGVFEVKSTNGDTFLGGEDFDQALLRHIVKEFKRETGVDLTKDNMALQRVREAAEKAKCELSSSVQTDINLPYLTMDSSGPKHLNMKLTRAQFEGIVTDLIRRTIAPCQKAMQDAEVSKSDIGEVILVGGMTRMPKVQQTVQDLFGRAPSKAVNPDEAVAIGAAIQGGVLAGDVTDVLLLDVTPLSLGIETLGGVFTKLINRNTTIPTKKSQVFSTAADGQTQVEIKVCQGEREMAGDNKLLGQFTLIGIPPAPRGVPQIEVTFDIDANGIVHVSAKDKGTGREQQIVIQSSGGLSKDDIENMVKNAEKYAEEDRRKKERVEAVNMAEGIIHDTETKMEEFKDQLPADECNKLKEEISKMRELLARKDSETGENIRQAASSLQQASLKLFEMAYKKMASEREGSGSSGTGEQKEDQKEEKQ
UniProt P38647, residues 47-679: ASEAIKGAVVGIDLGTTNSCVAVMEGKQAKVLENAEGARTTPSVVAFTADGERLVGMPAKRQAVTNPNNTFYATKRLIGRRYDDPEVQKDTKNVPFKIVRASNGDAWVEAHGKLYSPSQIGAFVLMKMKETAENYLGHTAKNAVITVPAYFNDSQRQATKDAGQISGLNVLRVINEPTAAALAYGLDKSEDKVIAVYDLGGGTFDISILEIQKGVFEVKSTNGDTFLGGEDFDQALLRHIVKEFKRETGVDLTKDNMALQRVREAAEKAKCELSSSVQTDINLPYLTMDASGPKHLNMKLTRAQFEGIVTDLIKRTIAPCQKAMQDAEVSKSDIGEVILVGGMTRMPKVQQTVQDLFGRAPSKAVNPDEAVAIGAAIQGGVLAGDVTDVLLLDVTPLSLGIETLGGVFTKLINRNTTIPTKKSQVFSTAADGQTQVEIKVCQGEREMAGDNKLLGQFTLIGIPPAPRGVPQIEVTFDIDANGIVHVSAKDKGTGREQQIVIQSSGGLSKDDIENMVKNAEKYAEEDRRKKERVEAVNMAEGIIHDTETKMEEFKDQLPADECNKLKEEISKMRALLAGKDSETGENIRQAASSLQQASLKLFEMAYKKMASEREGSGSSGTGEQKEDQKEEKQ
UniProt P11881: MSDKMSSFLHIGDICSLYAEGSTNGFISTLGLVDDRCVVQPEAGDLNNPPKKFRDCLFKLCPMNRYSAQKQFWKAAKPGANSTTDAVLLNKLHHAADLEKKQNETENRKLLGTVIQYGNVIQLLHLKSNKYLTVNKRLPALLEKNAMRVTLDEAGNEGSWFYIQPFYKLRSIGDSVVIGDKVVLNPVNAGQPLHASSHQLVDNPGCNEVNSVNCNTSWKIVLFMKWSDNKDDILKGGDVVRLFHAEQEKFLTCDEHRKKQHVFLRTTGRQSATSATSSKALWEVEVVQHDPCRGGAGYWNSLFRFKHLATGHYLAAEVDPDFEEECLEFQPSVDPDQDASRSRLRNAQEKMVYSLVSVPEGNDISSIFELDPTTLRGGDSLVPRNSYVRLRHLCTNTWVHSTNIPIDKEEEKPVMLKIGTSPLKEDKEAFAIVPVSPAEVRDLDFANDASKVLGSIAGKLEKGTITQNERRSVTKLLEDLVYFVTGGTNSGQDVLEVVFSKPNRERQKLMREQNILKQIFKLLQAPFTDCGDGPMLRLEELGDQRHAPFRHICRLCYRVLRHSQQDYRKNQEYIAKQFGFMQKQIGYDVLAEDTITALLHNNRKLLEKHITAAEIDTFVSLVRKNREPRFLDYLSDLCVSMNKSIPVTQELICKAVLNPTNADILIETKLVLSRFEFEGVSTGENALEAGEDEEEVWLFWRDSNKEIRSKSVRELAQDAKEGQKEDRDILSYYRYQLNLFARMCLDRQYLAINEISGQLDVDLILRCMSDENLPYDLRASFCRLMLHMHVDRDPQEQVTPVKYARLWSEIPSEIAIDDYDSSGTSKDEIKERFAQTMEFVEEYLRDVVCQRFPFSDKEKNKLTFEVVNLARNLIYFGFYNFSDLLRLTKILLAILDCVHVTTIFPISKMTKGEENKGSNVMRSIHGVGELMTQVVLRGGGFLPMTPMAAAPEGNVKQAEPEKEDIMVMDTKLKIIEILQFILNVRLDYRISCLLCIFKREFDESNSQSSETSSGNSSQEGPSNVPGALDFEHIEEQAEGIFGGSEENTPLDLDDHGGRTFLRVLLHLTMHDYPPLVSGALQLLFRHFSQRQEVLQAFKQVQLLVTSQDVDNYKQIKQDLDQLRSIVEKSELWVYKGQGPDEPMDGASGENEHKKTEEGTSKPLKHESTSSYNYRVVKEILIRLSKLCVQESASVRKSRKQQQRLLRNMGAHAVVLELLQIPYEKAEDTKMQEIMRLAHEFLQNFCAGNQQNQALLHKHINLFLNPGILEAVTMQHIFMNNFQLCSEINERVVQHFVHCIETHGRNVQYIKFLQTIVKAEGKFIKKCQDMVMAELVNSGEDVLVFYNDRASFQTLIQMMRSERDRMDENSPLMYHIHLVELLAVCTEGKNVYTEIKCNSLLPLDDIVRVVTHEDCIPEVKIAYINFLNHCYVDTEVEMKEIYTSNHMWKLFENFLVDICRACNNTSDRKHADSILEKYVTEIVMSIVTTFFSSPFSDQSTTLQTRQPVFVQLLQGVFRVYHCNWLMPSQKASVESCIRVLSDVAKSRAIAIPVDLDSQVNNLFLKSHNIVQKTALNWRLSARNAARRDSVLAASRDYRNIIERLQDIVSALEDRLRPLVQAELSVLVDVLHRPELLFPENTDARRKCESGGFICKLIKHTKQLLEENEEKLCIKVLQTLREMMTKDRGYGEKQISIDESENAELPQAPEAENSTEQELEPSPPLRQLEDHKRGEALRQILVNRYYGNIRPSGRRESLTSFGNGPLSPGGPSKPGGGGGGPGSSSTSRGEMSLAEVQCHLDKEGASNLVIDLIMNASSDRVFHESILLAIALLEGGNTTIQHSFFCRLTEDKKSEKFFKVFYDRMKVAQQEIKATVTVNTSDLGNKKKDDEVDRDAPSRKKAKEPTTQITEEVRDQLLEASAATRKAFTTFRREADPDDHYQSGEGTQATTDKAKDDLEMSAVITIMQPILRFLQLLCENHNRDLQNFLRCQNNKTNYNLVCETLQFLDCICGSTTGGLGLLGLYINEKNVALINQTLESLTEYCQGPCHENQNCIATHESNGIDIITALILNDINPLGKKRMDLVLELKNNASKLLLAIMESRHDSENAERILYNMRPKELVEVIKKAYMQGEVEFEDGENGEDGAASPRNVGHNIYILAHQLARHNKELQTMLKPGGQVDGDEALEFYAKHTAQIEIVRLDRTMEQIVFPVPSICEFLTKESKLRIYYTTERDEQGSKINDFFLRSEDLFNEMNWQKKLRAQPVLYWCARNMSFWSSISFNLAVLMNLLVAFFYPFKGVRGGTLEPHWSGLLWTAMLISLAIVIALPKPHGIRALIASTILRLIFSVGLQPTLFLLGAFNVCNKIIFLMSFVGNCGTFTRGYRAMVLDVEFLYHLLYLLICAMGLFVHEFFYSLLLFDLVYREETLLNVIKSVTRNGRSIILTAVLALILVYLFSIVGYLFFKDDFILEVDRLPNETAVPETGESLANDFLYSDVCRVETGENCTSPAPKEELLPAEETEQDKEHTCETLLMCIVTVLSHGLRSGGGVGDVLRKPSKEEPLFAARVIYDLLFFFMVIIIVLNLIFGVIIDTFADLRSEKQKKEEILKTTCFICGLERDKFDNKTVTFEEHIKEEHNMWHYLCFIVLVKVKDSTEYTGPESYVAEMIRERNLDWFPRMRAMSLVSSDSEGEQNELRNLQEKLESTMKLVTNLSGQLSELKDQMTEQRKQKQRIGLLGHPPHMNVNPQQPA

What was measured:
[1] = molecular target: Human GRP75 with c-term hemagglutinin (HA) tag, wild type (human) (UniProt P38646); assay: proximity ligation; in situ PLA (Duolink) on fixed, permeabilised AML12 cells; endogenous proteins, PDK4-FLAG (FLAG antibody) or HA-tagged GRP75 WT/mutants (HA antibody) co-overexpressed with PDK4-FLAG; with or without 100 mM EtOH for 24 h
[2] = molecular target: glucose-regulated protein 75 (GRP75), endogenous mouse (mouse (endogenous in mouse liver, primary mouse hepatocytes and AML12 cells)) (UniProt P38647); assay: as above
[3] = molecular target: glucose-regulated protein 75 (GRP75), endogenous mouse (mouse (endogenous in mouse liver, primary mouse hepatocytes and AML12 cells)) (UniProt P38647); assay: co-IP; IP with GRP75 antibody from liver lysates of control diet (CD) and EtOH diet (ED)-fed mice; lysis buffer 50 mM Tris, 150 mM NaCl, 1% Triton X-100, 1 mM EDTA, 10% glycerol; A/G plus agarose beads overnight at 4 °C; immunoblotting
[4] = molecular target: Human GRP75 with c-term hemagglutinin (HA) tag, wild type (human) (UniProt P38646); assay: co-IP; IP with HA antibody from AML12 cells overexpressing HA-tagged WT or phospho-mutant GRP75, either co-overexpressing PDK4-FLAG (Fig. 3g) or treated with 100 mM EtOH for 24 h (Fig. 4a); immunoblotting of endogenous IP3R1 and VDAC1
[5] = molecular target: glucose-regulated protein 75 (GRP75), endogenous mouse (mouse (endogenous in mouse liver, primary mouse hepatocytes and AML12 cells)) (UniProt P38647); assay: proximity ligation; in situ PLA (Duolink) on fixed, permeabilised primary mouse hepatocytes (Pdk4+/+ and Pdk4-/-), with or without 100 mM EtOH for 24 h; endogenous proteins

Measured: binding

inositol-1-tri-phosphate receptor 1 (IP3R1), endogenous mouse (from UniProt P11881 1-2749)
binds: all assays above
